The values that follow come from patent US11779620B2 (priority 2020, dated 2023).

The nature of the data set: Endotoxin testing, quantitative kinetic turbidimetric method. The following applies: purified LPS.

Regarding lipopolysaccharide [LPS], the “level of endotoxin, equivalent” value (converted from EU/ng) is on record as 10,000,000 EU/mg. Besides, under “same assay”, the level of endotoxin amounted to 10 EU/ng.
